The experiment can be described thus: qHTS Assay for Lipid Storage Modulators in Drosophila S3 Cells.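 On cell number change: cells counted by Cell Tracker Red CMTPX staining in the red channel.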 As to conditions: BODIPY lipid droplet fluorescence, 18-24 h; for cell number change: measured here: cell count max response, cells fed with added oleic acid. The essentials: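 Laser-scanning cytometry quantifies lipid droplet accumulation (500–530 nm total intensity; droplet/cell object ratio) in oleic acid-fed (400 uM added) Drosophila S3 cells treated with a concentration series. 20 uM Triacsin C defined 100% inhibition.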
A general note: qHTS replaces the single test concentration by a dilution series.

Where [1] appears, read: measured here: lipid fluorescence (Fed channel) AC50, cells fed with added oleic acid.
[2] abbreviates: measured here: cell number channel AC50, cells fed with added oleic acid.

Each structure is given as a SMILES string. Some of the results follow. The main result of the screen is listed elsewhere. These columns were measured beside it and carry no call. Compounds called inactive in the main read-out are mostly missing here. Potencies come from curve fits of mixed quality, noted in brackets.

In general, AC50 refers to the concentration at which the activity in the assay is half-maximal. A low value points to activity at low concentration. For `COc1ccc(N(CC(=O)NCc2ccc3c(c2)OCO3)C(=O)c2csnn2)cc1`, under setting [1], the concentration at half-maximal activity (AC50) is 0.103 µM [falling, partial curve, poor fit].
On to `O=c1cc(-c2ccccc2)[nH]c2cc(F)ccc12`, for which the cell number change amounted to 17.7%. Further, the AC50 under setting [1] was 18.4 µM [rising, single point].
On to `COc1ccc(C(=O)COC(=O)c2cc(=O)[nH]c3ccccc23)c(OC)c1`, for which the cell number change was -48.6%. Besides, the AC50 under setting [2] was 13 µM [falling, partial curve]. The AC50 under setting [1] is 5.17 µM [falling, single point].
Regarding `Cc1ccc(NS(=O)(=O)c2ccc3c(c2)oc(=O)n3C)cc1`, the cell number change was 21.1%. The AC50 under setting [1] is 29.1 µM [rising, single point].
Consider `Cc1cc(N/N=C2/CCCc3ccccc32)nc2ccccc12`, for which the cell number change was -62.3%. In addition, the half-maximal activity concentration (AC50) under setting [2] was 32.6 µM [falling, single point]. Moreover, under setting [1], the concentration at half-maximal activity (AC50) was 29.1 µM [falling, single point].
For `COc1cccc(NC(=O)COc2cc(C)cc3oc(=O)cc(C)c23)c1`, the cell number change is 39.1%. In addition, the half-maximal activity concentration (AC50) under setting [2] was 29.1 µM [rising, single point].
For the molecule `CCc1ccc(NC(=O)N(Cc2cccnc2)Cc2ccco2)cc1`, the cell number change is -6.96%. The half-maximal activity concentration (AC50) under setting [2] was 0.13 µM [rising, full curve, poor fit]. Moreover, under setting [1], the AC50 is 0.13 µM [rising, full curve, poor fit].
As to `Cc1ccc(Sc2ccc(NC(=O)CCl)cc2)c(C)c1`, the cell number change was -62.5%. In addition, the concentration at half-maximal activity (AC50) under setting [2] is 25.9 µM [falling, partial curve]. In addition, under setting [1], the AC50 is 32.6 µM [falling, single point].
For the molecule `Cc1ccccc1N(CC(=O)N/N=C/c1ccc(F)cc1)C(=O)c1ccccc1`, the cell number change is 27.3%. Also, the concentration at half-maximal activity (AC50) under setting [2] was 0.82 µM [rising, full curve, poor fit]. Besides, under setting [1], the half-maximal activity concentration (AC50) was 5.8 µM [rising, single point].
Regarding `Cc1cccc(NC(=O)C2CC(O)CN2C(=O)Oc2ccccc2)c1` (configuration not stated), the cell number change is 50%. Moreover, under setting [2], the AC50 is 29.1 µM [rising, partial curve, poor fit].
For the molecule `O=C(c1cc2cc(F)ccc2[nH]1)N1CCN(Cc2ccc3c(c2)OCO3)CC1`, under setting [1], the concentration at half-maximal activity (AC50) is 20.6 µM [falling, single point].
Turning to `CN(C)c1ccc(/C=N/NC(=O)COc2ccccc2)cc1`, the cell number change is 61.8%. The AC50 under setting [2] is 23.1 µM [rising, single point].
On to `CCN(CC)CCCn1c2c(c(SCC(=O)Nc3ccc(C)c(F)c3)nc1=O)CCC2`, for which the cell number change was found to be 102%. Also, under setting [2], the concentration at half-maximal activity (AC50) is 16.4 µM [rising, single point].
`O=C(NNS(=O)(=O)c1ccccc1[N+](=O)[O-])c1cc2ccccc2cc1O`: the cell number change was found to be 19.7%. Moreover, the AC50 under setting [2] was 1.3 µM [rising, full curve, poor fit]. Further, the AC50 under setting [1] is 0.13 µM [rising, partial curve, poor fit].
Turning to `N#Cc1ccccc1S(=O)(=O)N1CCN(CC(O)CN2CCOCC2)CC1` (configuration not stated), the cell number change was -13.6%. Further, under setting [2], the half-maximal activity concentration (AC50) was 0.13 µM [falling, partial curve, poor fit]. In addition, under setting [1], the concentration at half-maximal activity (AC50) is 0.366 µM [falling, partial curve].
Consider `O=C(c1ccco1)c1cn(CC(=O)N2CCCCCC2)c2ccccc12`, for which the cell number change is -23%. In addition, the concentration at half-maximal activity (AC50) under setting [1] was 6.51 µM [falling, single point].
For `COc1ccc(CCNCc2csc3nc4ccccc4n23)cc1OC`, the cell number change was -46.6%. Further, the concentration at half-maximal activity (AC50) under setting [2] is 25.9 µM [falling, single point]. Also, the concentration at half-maximal activity (AC50) under setting [1] is 23.1 µM [falling, partial curve].
Take `CC(C)OCCCNc1ncc2c(n1)CC(c1ccc(N(C)C)cc1)CC2=O` (configuration not stated): the cell number change turned out to be 2.43%. Also, the AC50 under setting [1] was 6.51 µM [rising, partial curve].
Turning to `Cn1c(=O)c2c(nc(Oc3ccccc3Br)n2C)n(C)c1=O`, the cell number change worked out at 26.6%. Besides, under setting [1], the AC50 is 29.1 µM [rising, single point].
In the case of `Cn1c(=NC(=O)COc2ccccc2)sc2cc(F)cc(F)c21`, the cell number change turned out to be 4.41%. The AC50 under setting [2] is 0.0651 µM [rising, full curve, poor fit]. Further, the AC50 under setting [1] is 0.259 µM [rising, full curve].
Regarding `Cc1ccc(C(C(=O)NC2CCCC2)N(C(=O)c2csnn2)C2CCCC2)o1` (configuration not stated), the cell number change is -4.15%.
As for `CCCc1cc(C(=O)Nc2cnn(Cc3ccc(F)cc3)c2)no1`, the cell number change worked out at 19.9%. The AC50 under setting [1] was 4.61 µM [rising, partial curve].
On to `CC(C)NC(=S)N1CCN(S(=O)(=O)c2cccc(C(F)(F)F)c2)CC1`, for which the cell number change came to 4.31%.
Turning to `NC(=O)c1ccc[n+](CC(=O)OCCC23CC4CC(CC(C4)C2)C3)c1`, the cell number change is -10.9%. Besides, the AC50 under setting [1] was 0.411 µM [falling, full curve, poor fit].
For the molecule `CCN1CCN(c2nc(N)c([N+](=O)[O-])c(Nc3ccc(C)cc3)n2)CC1`, the cell number change worked out at 47.8%. Besides, the AC50 under setting [2] was 16.4 µM [rising, single point]. Under setting [1], the AC50 is 0.517 µM [falling, single point].
Consider `Cc1ccc(C(=O)c2ncc[nH]2)cc1`, for which the cell number change came to 25.5%. Under setting [2], the concentration at half-maximal activity (AC50) is 0.411 µM [rising, full curve, poor fit]. Also, the AC50 under setting [1] is 0.731 µM [rising, partial curve, poor fit].
For `CN(NC(=O)c1ccc(Cl)cc1)c1ncc(C(F)(F)F)cc1Cl`, the cell number change is 17.7%. For the same molecule, the AC50 under setting [1] is 2.06 µM [rising, full curve, poor fit].
On to `CC(C)C(=O)N1CCN(c2ccc(NC(=S)NC(=O)c3cc4ccccc4o3)cc2)CC1`, for which the cell number change was 43.8%. Moreover, the AC50 under setting [2] was 29.1 µM [rising, single point]. The AC50 under setting [1] is 29.1 µM [rising, single point].
Take `O=C(CSc1nnc(CCCN2C(=O)c3cccc4cccc(c34)C2=O)n1-c1ccccc1)NCCCN1CCOCC1`: under setting [1], the AC50 was 9.2 µM [rising, partial curve].
`O=C(Nc1nnc(-c2ccccc2Cl)o1)c1ccc(S(=O)(=O)N2CCCCCC2)cc1`: the cell number change is -15.3%.
On the same count and under the same terms, as for `CC1Cc2nc(SCC(=O)N3CCCC3)n(C)c(=O)c2S1` (configuration not stated), the figure is 49.8%.
As to `CCCSc1nc2c(cnn2-c2ccc(F)cc2)c(=O)[nH]1`, the cell number change came out at 6.03%. The AC50 under setting [1] was 6.51 µM [falling, single point].
`O=C(CSc1n[nH]c(-c2cccnc2)n1)Nc1ccnc2ccccc12`: the cell number change was 0.84%.
For the molecule `CCOC(=O)CSc1nc2ccccc2c(=O)n1CCCCCC(=O)NCc1ccco1`, the cell number change worked out at 0.982%. Also, the AC50 under setting [1] is 1.64 µM [rising, partial curve].
Turning to `Cc1cccc(NC(=O)CN(C)S(=O)(=O)c2ccc3c(c2)n(C)c(=O)c(=O)n3C)c1C`, the cell number change is -39.5%. In addition, the concentration at half-maximal activity (AC50) under setting [2] was 14.6 µM [falling, partial curve, poor fit].
Take `CC(=O)Nc1c2c(nn1-c1cccc(Cl)c1)CS(=O)C2` (configuration not stated): the cell number change is 17.1%. The half-maximal activity concentration (AC50) under setting [2] is 5.17 µM [falling, single point]. For the same molecule, under setting [1], the half-maximal activity concentration (AC50) was 6.51 µM [falling, single point].
In the case of `CC1CCN(Cc2c(C(=O)N/N=C/c3ccccc3O)nnn2-c2nonc2N)CC1`, the cell number change was 22.5%. For the same molecule, the half-maximal activity concentration (AC50) under setting [1] is 29.1 µM [falling, single point].
Take `CCCCn1c(N)c(N(CCOC)C(=O)CSCc2ccccc2C)c(=O)[nH]c1=O`: the cell number change was -11.9%. Under setting [1], the half-maximal activity concentration (AC50) was 2.59 µM [falling, partial curve, poor fit].
Regarding `Cc1ccc(S(=O)(=O)/N=c2\ccc(Cl)cn2C(F)F)cc1`, the cell number change was -7.54%. Further, the concentration at half-maximal activity (AC50) under setting [2] is 4.61 µM [falling, single point]. Under setting [1], the half-maximal activity concentration (AC50) was 6.51 µM [falling, single point].
Turning to `CCc1ccc(-c2csc(NC(=O)COC(=O)CCc3nc4ccccc4s3)n2)cc1`, the cell number change was -17%. Moreover, the AC50 under setting [1] is 3.66 µM [rising, single point].
For `CCCCc1ccc(NC(=S)N2CCN(C(=O)c3ccco3)CC2)cc1`, the cell number change is -9.25%. The AC50 under setting [1] was 3.66 µM [rising, single point].
Regarding `COc1cccc(-n2c(CNc3ccc(F)cc3)nnc2SCC(N)=O)c1`, the cell number change was -81.9%. Besides, the half-maximal activity concentration (AC50) under setting [2] is 23.1 µM [falling, partial curve]. Moreover, the half-maximal activity concentration (AC50) under setting [1] was 29.1 µM [falling, single point].
As for `COc1ccc(C2c3ccc(O)cc3Oc3ncn(Cc4ccco4)c(=N)c32)cc1` (configuration not stated), the cell number change is -7.61%. Also, the AC50 under setting [1] is 25.9 µM [falling, single point].
With `CCCCOc1ccc(/C=N/NC(=O)c2nnn(-c3nonc3N)c2C)cc1`, the cell number change came out at 45.9%. Also, under setting [2], the AC50 is 29.1 µM [rising, single point]. Moreover, the AC50 under setting [1] was 29.1 µM [rising, single point].
On to `Clc1ccc(OCCn2ccnc2)c2ccccc12`, for which the cell number change was -5.18%. Further, the half-maximal activity concentration (AC50) under setting [2] was 0.00411 µM [falling, full curve, poor fit]. Moreover, the concentration at half-maximal activity (AC50) under setting [1] was 1.3 µM [rising, full curve].
For the molecule `COc1ccccc1NS(=O)(=O)c1ccc(C(=O)Nc2ncccc2O)cc1`, the cell number change is -64.1%. For the same molecule, the AC50 under setting [2] was 25.9 µM [falling, single point]. For the same molecule, the AC50 under setting [1] is 1.84 µM [falling, partial curve].
Consider `CN(CC(=O)Nc1ccc(F)cc1)C(=O)COC(=O)/C=C/c1cccs1`, for which the cell number change is 47.1%. Further, under setting [2], the AC50 is 14.6 µM [rising, partial curve].
As for `COc1cccc(CNCCc2c[nH]c3ccccc23)c1OCc1ccc(F)cc1`, the cell number change is -62%. Further, under setting [2], the AC50 is 32.6 µM [falling, single point].
`Cc1[nH]c2ccc(C(=O)OC(C)C(=O)NC3CCCCC3C)cc2c1C` (configuration not stated): the cell number change was -36.8%. Further, the concentration at half-maximal activity (AC50) under setting [2] is 29.1 µM [falling, single point]. For the same molecule, under setting [1], the AC50 was 18.4 µM [falling, single point].
On to `CCn1cc(C(=O)Nn2cnnc2)c(=O)c2ccc(C)nc21`, for which the cell number change is 125%. The AC50 under setting [1] was 6.51 µM [falling, single point].
Consider `CC(NC(=O)COC(=O)c1ccc(N(C)C)cc1)c1ccccc1` (configuration not stated), for which the cell number change was -5.97%. The concentration at half-maximal activity (AC50) under setting [1] is 0.116 µM [rising, partial curve, poor fit].
Take `COC(=O)COc1ccc(/C=C2/SC(=O)N(CC(=O)N3CCCC3)C2=O)cc1Br`: the AC50 under setting [2] was 2.91 µM [rising, single point].
Take `COc1cccc(CN(C(=O)c2ccccc2)C2CCS(=O)(=O)C2)c1` (configuration not stated): the cell number change is -0.763%.
Take `COc1ccc(N(CC(=O)N/N=C/c2ccco2)S(=O)(=O)c2ccccc2)cc1Cl`: the cell number change is -27.6%. In addition, the AC50 under setting [1] was 29.1 µM [falling, single point].

For the origin of these results see PubChem BioAssay AID2685 (National Center for Advancing Translational Sciences (NCATS), 2010).
